Measurements reported in patent US7268224B2, “Human glucocorticoid receptor 1A promoter and splice variants” (Board of Supervisors of Louisianna State University and …, priority 2000, dated 2007).
At least one structure is not confirmed: it was looked up by name or label, or the drawing left a doubt.

Experiments:
[1] = tested on: hGR 1Ap/e sequence (-965/+269) promoter activity in Jurkat cells; assay: hGR 1Ap/e-luciferase reporter assay, Jurkat cells cotransfected with GR; format: cell-based, human; conditions: Jurkat cells cotransfected with GR expression plasmid, 1 μM, 24 hr
[2] = tested on: hGR 1Ap/e sequence (-965/+269) promoter activity in IM-9 cells; assay: hGR 1Ap/e-luciferase reporter assay, IM-9 cells; format: cell-based, human; conditions: 1 μM, 24 hr
CEM-C7 cells = assay: Apoptosis of CEM-C7 cells after dexamethasone treatment; format: cell-based, human; conditions: 1 μM, 48 hours after treatment
[3] = tested on: GR exon 1 transcripts in IM-9 cells; assay: RT-PCR of GR exon 1 transcripts after hormone treatment, IM-9; conditions: 1 μM
[4] = tested on: GR 1A3 exon-containing transcripts in CEM-C7 cells; assay: Northern blot of GR exon 1A transcripts after glucocorticoid treatment; format: cell-based, human; conditions: 1 μM, 6 and 24 hours, data not shown
From the text: Glucocorticoid hormone treatment is known to up-regulate the levels of both GR mRNA and GR protein in immature T-lymphocytes and in some T-lymphoblasts that undergo apoptosis following hormone treatment. See Denton et al., (1993); and L. P. Eisen et al., “Positive Regulation of the Glucocorticoid Receptor in Human T-Cells Sensitive to the Cytolytic Effects of Glucocorticoids,” J. Biol. Chem., vol. 263, pp. 12044-12048 (1988). The human CEM-C7 acute lymphoblastic leukemia (ALL) cell line has served as a model system for glucocorticoid-sensitive human T-cell ALL. See M. R. Norman and E. B. Thompson, “Characterization of a Glucocorticoid-Sensitive Human Lymphoid Cell Line,” Cancer Res., vol. 37, pp. 3785-3791 (1977). CEM-C7 cells were treated with 1 μM dexamethasone (a glucocorticoid analogue) for various periods of time, from 6 hr to 48 hr. RNA was then extracted, and northern blots were prepared and probed with the GR-1A-exon-specific probes (exon 1A1, exon 1A2, and exon 1A3; Table 1). […] Up-regulation of exon 1A1 and exon 1A2 transcripts was also observed (data not shown).

[5] = tested on: GR exon 1 transcripts in CEM-C7 cells; assay: RT-PCR of GR exon 1 transcripts after hormone treatment, CEM-C7; conditions: 1 μM

## C[C@@H]1C[C@H]2[C@@H]3CCC4=CC(=O)C=C[C@]4(C)[C@@]3(F)[C@@H](O)C[C@]2(C)[C@@]1(O)C(=O)CO [dexamethasone]
[1]
  luciferase activity, -965/+269 hGR 1Ap/e construct: increase in luciferase activity
[2]
  luciferase activity, -965/+269 hGR 1Ap/e construct: not in IM-9 cells
CEM-C7 cells
  cell death (apoptosis): underwent apoptosis and were dying
[3]
  Exon 1B- and 1C-containing transcripts: unaffected
  level of 1A3-containing transcripts: reduced
[4]
  GR 1A3 exon-containing transcripts: dramatic increase
[5]
  Exon 1B- and 1C-containing transcripts: only slightly elevated
